# Taken from: PubChem BioAssay AID1259280 (Sanger Institute, 2017)
# Screen: 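Kinase knock-downs that kill colorectal cancer cells or add to anchor drugs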 (primary screen)
# System: human SNU407 colorectal cancer cells
# Reagents: siRNA pool against human genes
# Treatment: anchor drugs BYL719 at 1 µM, cetuximab at 5 µg/ml or trametinib at 10 nM, or DMSO vehicle alone; exposure time not given
# Detection: 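Viability relative to non-targeting control siRNA, expressed as robust z-score, plus a synergy score for each of the three anchor drugs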
# Reading the numbers: viability z-score, no drug and viability vs control, no drug: higher = more cells survive the knock-down; synergy with trametinib and synergy with BYL719 and synergy with cetuximab: higher = stronger synergy of knock-down with drug
# Rule for the call: 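Essential calls require a no-drug robust viability z-score under -3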
# Calls: active = essential (knock-down alone kills cells); inactive = no change without drug
# This is a random part of 794 reagents. 12 of all reagents (1.5%) were called active. 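Calls cover knock-down without drug only; synergy scores stand apart, values above 0.15 being treated as synergy.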 Viability is capped at 1. No sequences are given here. Not given: the amount of reagent, the time to read-out.
gene,"viability z-score, no drug","viability vs control, no drug (fraction of control)",synergy with trametinib,synergy with BYL719,synergy with cetuximab,outcome
LMTK2,-1.25,0.835,-0.072,-0.0355,-0.0997,inactive
TYRO3,-0.274,0.91,0.035,-0.043,-0.0149,inactive
GUCY2EP,-1.63,0.807,-0.0661,-0.0387,-0.0325,inactive
MOS,0.357,0.958,-0.0901,-0.0737,0.0338,inactive
TLK2,0.901,1,-0.0875,-0.109,-0.0713,inactive
PIK3C3,-0.154,0.919,-0.024,0.0403,-0.0471,inactive
TSSK6,0.723,0.986,0.0259,0.0927,0.0147,inactive
STK26,-0.121,0.922,-0.00999,-0.0594,-0.159,inactive
ACVRL1,0.901,1,0.055,-0.0561,0.0377,inactive
HIPK4,0.901,1,-0.123,-0.0837,-0.0784,inactive
GTF2H1,-3.26,0.682,-0.0366,0.0407,-0.0535,active
MAP3K3,0.901,1,-0.00264,-0.0339,0.0974,inactive
HK2,-1.37,0.826,-0.0637,0.0599,-0.0411,inactive
ACVR1B,0.901,1,-0.017,-0.0456,-0.0304,inactive
BRDT,0.805,0.993,0.0207,0.0161,0.0146,inactive
DIS3,0.628,0.979,0.0139,0.0399,0.0109,inactive
MECOM,0.901,1,-0.00204,0.0885,0.091,inactive
TGFBR3,0.901,1,-0.00269,-0.0222,-0.0886,inactive
SPEG,0.901,1,-0.00808,0.0328,0.0466,inactive
FXR1,0.215,0.948,0.0101,0.0729,-0.0483,inactive
BRWD1,-0.483,0.894,0.0708,-0.033,0.0147,inactive

The list goes on, starting with the last 6 of the part before.
gene,"viability z-score, no drug","viability vs control, no drug (fraction of control)",synergy with trametinib,synergy with BYL719,synergy with cetuximab,outcome
DIS3,0.628,0.979,0.0139,0.0399,0.0109,inactive
MECOM,0.901,1,-0.00204,0.0885,0.091,inactive
TGFBR3,0.901,1,-0.00269,-0.0222,-0.0886,inactive
SPEG,0.901,1,-0.00808,0.0328,0.0466,inactive
FXR1,0.215,0.948,0.0101,0.0729,-0.0483,inactive
BRWD1,-0.483,0.894,0.0708,-0.033,0.0147,inactive
PRKD1,0.901,1,0.0732,0.0952,-0.0578,inactive
TRPM6,0.901,1,-0.0942,0.0712,-0.0616,inactive
MUSK,0.901,1,0.0913,0.176,0.12,inactive
TSSK2,0.9,1,0.0797,0.0905,0.148,inactive
TSKS,0.901,1,-0.0688,0.0701,-0.0776,inactive
NTRK3,0.901,1,-0.0521,-0.126,-0.067,inactive
TCF7L2,0.901,1,-0.0328,-0.103,-0.0218,inactive
GRK3,0.862,0.997,-0.0989,0.0288,-0.0336,inactive
NME2,0.901,1,0.0973,0.00843,0.0281,inactive
HUS1,0.901,1,-0.107,-0.0673,-0.0387,inactive
ADCK2,-1.59,0.81,-0.00382,0.045,-0.0789,inactive
PIK3R2,0.24,0.95,-0.117,-0.084,-0.0576,inactive
PFKP,-0.413,0.9,-0.0214,0.00341,-0.0886,inactive
NRAS,0.711,0.985,-0.0545,-0.0263,0.013,inactive
NME1,0.504,0.97,-0.204,-0.112,-0.1,inactive
MAPK7,-1.05,0.851,0.0369,-0.105,0.00981,inactive
STK17B,0.248,0.95,0.0804,0.0702,-0.0204,inactive
ERBB3,0.287,0.953,-0.0398,-0.0839,-0.0626,inactive
AKAP9,0.834,0.995,0.0856,0.155,0.0836,inactive
CKS1B,0.046,0.935,-0.0213,0.0406,-0.00564,inactive
LYN,0.901,1,-0.0832,-0.139,-0.0702,inactive
PKM,0.163,0.944,0.131,0.00998,-0.0906,inactive
NME3,-0.0611,0.926,-0.0112,-0.0162,0.0752,inactive
NTRK2,0.901,1,-0.062,-0.015,0.0472,inactive
MTOR,-0.117,0.922,-0.00371,0.0147,0.0817,inactive
PANK2,0.901,1,0.0134,0.0392,0.00111,inactive
MOK,0.901,1,-0.0468,0.0873,0.0383,inactive
MAP4K1,-0.75,0.874,-0.0886,-0.0432,-0.0624,inactive
TSSK1B,0.302,0.954,-0.0148,0.0212,-0.022,inactive
DGKK,-0.739,0.875,-0.0287,-0.028,-0.123,inactive
PRPS1,-0.916,0.861,-0.0693,-0.0983,-0.0532,inactive
DGKA,0.67,0.982,0.0101,0.0891,0.0492,inactive
IPMK,0.795,0.992,-0.0734,-0.0852,-0.0141,inactive
PFKFB1,-1.1,0.847,0.014,0.0498,-0.0415,inactive
CDKL5,0.901,1,-0.122,0.0191,-0.0886,inactive
INSRR,0.555,0.974,-0.0678,0.0327,-0.0402,inactive
PRKCA,-0.267,0.911,0.00835,0.0447,-0.132,inactive
STK40,-0.489,0.894,-0.0632,-0.00873,0.0304,inactive
FGFR1,0.901,1,-0.059,0.0912,0.0799,inactive
EPHA1,-0.383,0.902,0.0659,-0.058,-0.0265,inactive
PIM1,0.0632,0.936,-0.112,0.0752,-0.0165,inactive
EIF2AK2,0.901,1,-0.0468,-0.0202,-0.0648,inactive
